Taken from: PubChem BioAssay AID1259405 (NCATS, 2018)
This is an unselected part of about 50,000 reagents tested. About 4,000 of all reagents (8%) were called active. 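Mouse siRNA library applied to hamster cells; one well for each siRNA.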 The numbers tell different reagents against one gene apart. No sequences are given here.

- Test: 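Knock-downs that lift recombinant protein yield in hamster ovary cells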 (primary screen)
- Cells: Chinese hamster CHO-K1 ovary cells with stable secreted eGFP expression
- Knock-down reagent: single siRNA against mouse genes, 0.8 pmol siRNA per well (2 µl of 400 nM stock)
- Duration: 3 days
- Measured: 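Percent of the per-plate non-targeting control median for intracellular GFP per well by laser scanning cytometry and for cell viability by ATP luminescence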
- Scale: GFP, % of control: higher = more GFP per well, higher productivity; viability (ATP), % of control: higher = more viable cells (more ATP)
- Hit rule: 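Called active when intracellular GFP, relative to negative control, is at or above 120%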

The first 2 entries, ahead of the listing:
{"Gene": "1700052K11Rik (RIKEN cDNA 1700052K11 gene)", "siRNA no.": 1, "GFP, % of control": 91.7, "viability (ATP), % of control": 63.2, "activity call": "inactive"}
{"Gene": "1700052K11Rik (RIKEN cDNA 1700052K11 gene)", "siRNA no.": 2, "GFP, % of control": 140, "viability (ATP), % of control": 57, "activity call": "active"}

Results, from the first entry:
{"Gene": "1700052K11Rik (RIKEN cDNA 1700052K11 gene)", "siRNA no.": 1, "GFP, % of control": 91.7, "viability (ATP), % of control": 63.2, "activity call": "inactive"}
{"Gene": "1700052K11Rik (RIKEN cDNA 1700052K11 gene)", "siRNA no.": 2, "GFP, % of control": 140, "viability (ATP), % of control": 57, "activity call": "active"}
{"Gene": "1700052K11Rik (RIKEN cDNA 1700052K11 gene)", "siRNA no.": 3, "GFP, % of control": 88, "viability (ATP), % of control": 95.9, "activity call": "inactive"}
{"Gene": "Fam216b (family with sequence similarity 216, member B)", "siRNA no.": 1, "GFP, % of control": 138, "viability (ATP), % of control": 59.7, "activity call": "active"}
{"Gene": "Fam216b (family with sequence similarity 216, member B)", "siRNA no.": 2, "GFP, % of control": 75.9, "viability (ATP), % of control": 90.9, "activity call": "inactive"}
{"Gene": "Fam216b (family with sequence similarity 216, member B)", "siRNA no.": 3, "GFP, % of control": 35.8, "viability (ATP), % of control": 29.8, "activity call": "inactive"}
{"Gene": "Or6c88 (olfactory receptor family 6 subfamily C member 88)", "siRNA no.": 1, "GFP, % of control": 46.5, "viability (ATP), % of control": 64.3, "activity call": "inactive"}
{"Gene": "Or6c88 (olfactory receptor family 6 subfamily C member 88)", "siRNA no.": 2, "GFP, % of control": 63.6, "viability (ATP), % of control": 57.2, "activity call": "inactive"}
{"Gene": "Or6c88 (olfactory receptor family 6 subfamily C member 88)", "siRNA no.": 3, "GFP, % of control": 102, "viability (ATP), % of control": 75.6, "activity call": "inactive"}
{"Gene": "Krtap5-4 (keratin associated protein 5-4)", "siRNA no.": 1, "GFP, % of control": 37, "viability (ATP), % of control": 48.5, "activity call": "inactive"}
{"Gene": "Krtap5-4 (keratin associated protein 5-4)", "siRNA no.": 2, "GFP, % of control": 90.8, "viability (ATP), % of control": 88.9, "activity call": "inactive"}
{"Gene": "Krtap5-4 (keratin associated protein 5-4)", "siRNA no.": 3, "GFP, % of control": 170, "viability (ATP), % of control": 59.8, "activity call": "active"}
{"Gene": "Zfp57 (zinc finger protein 57)", "siRNA no.": 1, "GFP, % of control": 87.7, "viability (ATP), % of control": 76.6, "activity call": "inactive"}
{"Gene": "Zfp57 (zinc finger protein 57)", "siRNA no.": 2, "GFP, % of control": 68.8, "viability (ATP), % of control": 75.6, "activity call": "inactive"}
{"Gene": "Zfp57 (zinc finger protein 57)", "siRNA no.": 3, "GFP, % of control": 63.8, "viability (ATP), % of control": 79.3, "activity call": "inactive"}
{"Gene": "A730045E13Rik (RIKEN cDNA A730045E13 gene)", "siRNA no.": 1, "GFP, % of control": 79.5, "viability (ATP), % of control": 82.2, "activity call": "inactive"}
{"Gene": "A730045E13Rik (RIKEN cDNA A730045E13 gene)", "siRNA no.": 2, "GFP, % of control": 50.2, "viability (ATP), % of control": 36.8, "activity call": "inactive"}
{"Gene": "A730045E13Rik (RIKEN cDNA A730045E13 gene)", "siRNA no.": 3, "GFP, % of control": 65.4, "viability (ATP), % of control": 84.2, "activity call": "inactive"}
